Results: PMC10132618
Results are given in words; binding and its absence hold for the method and conditions named. In cells and extracts the contact can be indirect. Some results given as binding are weak or reduced against the parent protein; the word gives no strength. Sequences can lack the tags named with a protein.

Protein sequences, listed by entry. Tags and fused reporters are not part of them.
UniProt P11746: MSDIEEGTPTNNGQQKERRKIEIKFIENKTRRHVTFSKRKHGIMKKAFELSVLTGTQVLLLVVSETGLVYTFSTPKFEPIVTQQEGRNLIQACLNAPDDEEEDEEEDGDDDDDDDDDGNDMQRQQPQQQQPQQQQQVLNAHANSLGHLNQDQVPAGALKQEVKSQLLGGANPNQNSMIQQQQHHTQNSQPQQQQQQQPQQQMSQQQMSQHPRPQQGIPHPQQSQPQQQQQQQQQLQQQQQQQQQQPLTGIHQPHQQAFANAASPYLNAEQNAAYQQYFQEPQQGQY

Target: T1, Csm1-flag (S. cerevisiae) (UniProt P25651)
T1 sequence: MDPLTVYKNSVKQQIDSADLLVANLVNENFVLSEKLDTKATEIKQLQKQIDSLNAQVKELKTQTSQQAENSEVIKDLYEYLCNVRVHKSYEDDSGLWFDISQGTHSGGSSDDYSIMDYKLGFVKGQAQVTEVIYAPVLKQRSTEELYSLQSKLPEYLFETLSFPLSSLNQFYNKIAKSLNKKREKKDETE
Experiment: co-IP; yeast cell lysate; Mcm1-myc and Csm1-flag, immunoblot; loaded inputs are 5% of the lysate used for the IP

Mcm1-myc (from UniProt P11746 1-286) was tested. Which binding did it give?
The binding was “binds”.
